Data reported in patent US8506984B2, “Therapeutic agent elution control process” (Cordis Corporation, priority 2006, dated 2013).

Assay: Drug concentration in liquid formulations (liquid chromatography / HPLC)
Format: physicochemical
Details: 4 mg/ml formulation with PEG 200, ethanol
Excerpt: In accordance with exemplary embodiments of the present invention, a series of liquid formulations were developed for the local or regional delivery of water insoluble compounds such as sirolimus and its analogs, including CCI-779, ABT-578 and everolimus, through weeping balloons and catheter injection needles. […] These liquid formulations increase the apparent solubility of the pharmacologically active but water insoluble compounds by two to four orders of magnitude as compared to the solubility limits of the compounds in water. These liquid formulations rely on the use of a very small amount of organic solvents such as Ethanol (typically less than two percent) and a larger amount of safe amphiphilic (of or relating to a molecule having a polar, water soluble group attached to a non-polar, water insoluble […]) excipients such as polyethylene glycol (PEG 200, PEG 400) and vitamin E TPGS to enhance the solubility of the compounds. These liquid formulations of highly water insoluble compounds are stable and readily flowable at room temperature. […]
Table 8, shown below, summarizes the concentrations of the excipient, the co-solvents and the drug for four different liquid formulations in accordance with exemplary embodiments of the present invention. The concentrations of each constituent were determined by liquid chromatography and are presented as weight by volume figures. […]

## CO[C@H]1C[C@@H]2CC[C@@H](C)[C@@](O)(O2)C(=O)C(=O)N2CCCC[C@H]2C(=O)O[C@H]([C@H](C)C[C@@H]2CC[C@@H](O)[C@H](OC)C2)CC(=O)[C@H](C)/C=C(\C)[C@@H](O)[C@@H](OC)C(=O)[C@H](C)C[C@H](C)/C=C/C=C/C=C/1C [Rapamycin, rapamycin]
  sirolimus concentration relative to the solubility of sirolimus in water: four hundred to about one thousand
